From paper PMC8384837 come the findings set out here.

Residue numbers refer to the chain shown, from its start. This is one part of the list. At the low end of the ranking the order means little.

Conditions in all cases: yeast three-hybrid, YBZ-1, SC-Leu-His + 0.5 mM 3-AT, 4 days
Test [1] has as its target T1, PUM1 PUF domain R6-AYR N1043A + Q1047R (UniProt Q14671).
T1 sequence: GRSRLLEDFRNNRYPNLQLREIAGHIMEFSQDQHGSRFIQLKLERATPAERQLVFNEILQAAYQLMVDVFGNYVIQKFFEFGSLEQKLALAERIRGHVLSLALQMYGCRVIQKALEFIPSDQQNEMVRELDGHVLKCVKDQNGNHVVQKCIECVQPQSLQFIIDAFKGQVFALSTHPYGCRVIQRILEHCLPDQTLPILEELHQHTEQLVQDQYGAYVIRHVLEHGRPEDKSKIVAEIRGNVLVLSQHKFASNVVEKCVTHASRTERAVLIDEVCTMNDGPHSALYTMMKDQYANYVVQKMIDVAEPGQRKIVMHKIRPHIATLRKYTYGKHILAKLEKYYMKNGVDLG

Test [2] has as its target T2, PUM1 PUF domain R6-CYR N1043C + Q1047R (UniProt Q14671).
T2 sequence: T1 sequence with A216C

For test [3], the target named is T3, PUM1 PUF domain R6-TFA N1043T + Y1044F + Q1047A (UniProt Q14671).
T3 sequence: T1 sequence with A216T, Y217F, R220A

Test [4] deals with T4, PUM1 PUF domain R6-TFT N1043T + Y1044F + Q1047T (UniProt Q14671).
T4 sequence: T1 sequence with A216T, Y217F, R220T

Test [5] addresses T5, PUM1 PUF domain R6-TWA N1043T + Y1044W + Q1047A (UniProt Q14671).
T5 sequence: T1 sequence with A216T, Y217W, R220A

The target of test [6] is T6, PUM1 PUF domain R6-TWS N1043T + Y1044W + Q1047S (UniProt Q14671).
T6 sequence: T1 sequence with A216T, Y217W, R220S

For test [7], the target named is T7, PUM1 PUF domain R6-TWT N1043T + Y1044W + Q1047T (UniProt Q14671).
T7 sequence: T1 sequence with A216T, Y217W, R220T

The target of test [8] is T8, PUM1 PUF domain R6-TWV N1043T + Y1044W + Q1047V (UniProt Q14671).
T8 sequence: T1 sequence with A216T, Y217W, R220V

Test [9] deals with T9, PUM1 PUF domain R6-TYR N1043T + Q1047R (UniProt Q14671).
T9 sequence: T1 sequence with A216T

Test [10] has as its target T10, PUM1 PUF domain R6-VFK N1043V + Y1044F + Q1047K (UniProt Q14671).
T10 sequence: T1 sequence with A216V, Y217F, R220K

Test [11] addresses T11, PUM1 PUF domain R6-VFR N1043V + Y1044F + Q1047R (UniProt Q14671).
T11 sequence: T1 sequence with A216V, Y217F

Test [12] concerns the target T12, PUM1 PUF domain R6-VWC N1043V + Y1044W + Q1047C (UniProt Q14671).
T12 sequence: T1 sequence with A216V, Y217W, R220C

Test [13] concerns the target T13, PUM1 PUF domain R6-VWQ N1043V + Y1044W (UniProt Q14671).
T13 sequence: T1 sequence with A216V, Y217W, R220Q

The target of test [14] is T14, PUM1 PUF domain R6-VWT N1043V + Y1044W + Q1047T (UniProt Q14671).
T14 sequence: T1 sequence with A216V, Y217W, R220T

The target of test [15] is T15, PUM1 PUF domain R6-VYR N1043V + Q1047R (UniProt Q14671).
T15 sequence: T1 sequence with A216V

The target in test [16] is T16, PUM1 PUF domain R6-WHG N1043W + Y1044H + Q1047G (UniProt Q14671).
T16 sequence: T1 sequence with A216W, Y217H, R220G

The target of test [17] is T17, PUM1 PUF domain R6-WWS N1043W + Y1044W + Q1047S (UniProt Q14671).
T17 sequence: T1 sequence with A216W, Y217W, R220S

The target of test [18] is T18, PUM1 PUF domain R6-WYR N1043W + Q1047R (UniProt Q14671).
T18 sequence: T1 sequence with A216W

The target of test [19] is T19, PUM1 PUF domain R6-YWR N1043Y + Y1044W + Q1047R (UniProt Q14671).
T19 sequence: T1 sequence with A216Y, Y217W

The target of test [20] is T20, PUM1 PUF domain R6-YWV N1043Y + Y1044W + Q1047V (UniProt Q14671).
T20 sequence: T1 sequence with A216Y, Y217W, R220V

For the sequence “GGCUAGAACUAGUGGAUCCCCCGGCGCCCGGCGGCUCGAGCCCGGGUAAGUGGAAAUAGUCUGCAUGCCGCCGGGCGCCAUGCCUGCAGGUCGACUCUAGAAAACAUG”, the binding signal (log2 enrichment (interaction score)) in test [1] was -5.67; in test [2], -3.83; in test [3], below -6.84; in test [4], below -9.84; in test [5], below -8.19; in [6], below -8.4. In addition, the binding signal (log2 enrichment (interaction score)) in test [7] was below -8.18; in test [8], below -8.72; in [9], below -7.93; in test [10] it was below -7.92; in [11] it was below -9.04; in test [12], below -6.28. Moreover, the binding signal (log2 enrichment (interaction score)) was below -7.68 in [13]; below -7.92 in test [14]; below -8.48 in [15]; below -9.13 in test [16]; below -7.85 in test [17]; below -8.8 in test [18]. Moreover, the binding signal (log2 enrichment (interaction score)) in [19] is below -7.57; in test [20], below -8.1.
